Data: PubChem BioAssay AID1487 (National Center for Advancing Translational Sciences (NCATS), 2009)
Values joined by “and” are separate entries in the source; they are usually repeats but may differ in a detail not shown here. Equal values may be shown once. This is one part of the list. Further columns of the screen follow, without active or inactive calls. Most of these compounds were active or inconclusive in the main read-out, so they are no random draw. Words in brackets tell the shape of the fitted curve; partial curves, single points and poor fits give uncertain potencies.

Assay: qHTS Assay for Modulators of Lamin A Splicing
Settings: HeLa LMNA splicing GFP/RFP minigene ratio, 48 h
Method in brief: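 Read-out is the ratio of GFP to DsRed2 object intensity, acquired by 488 nm laser-scanning cytometry on HeLa lamin A-EGFP minigene reporter cells. Compound incubation 48 hrs at 37 °C in Opti-MEM with 2% FBS; DMSO 0.5% final.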

[1] = measured here: GFP splicing reporter channel
[2] = measured here: RFP viability control channel

SMILES | AC50 [1] | AC50 [2]
O=C(Nc1cccc(C(F)(F)F)c1)Nc1ccc(N2CCCC2)c(S(=O)(=O)Nc2ccccc2Cl)c1 | 28.2 µM [falling, single point] | 5.62 µM [rising, single point]
O=C1NCCCc2c1oc1cc(Br)c(O)c(Br)c21 | 11.2 µM [rising, partial curve, poor fit] | 12.6 µM [rising, single point]
Cc1nc2cc(NC(=O)N(C)c3ccc4ccccc4c3)ccc2o1 |  | 17.8 µM [rising, single point]
CCc1c(C)nc2cc(-c3ccc(OC)c(OC)c3)nn2c1N1CCCC1 |  | 14.1 µM [rising, partial curve, poor fit]
CCN(C(=O)CSc1cc(-c2ccccc2)c2ccc(OC)cc2n1)C1CCS(=O)(=O)C1 (stereo not drawn) |  | 35.5 µM [rising, single point]
Cc1onc(-c2ccccc2Cl)c1C(=O)N(Cc1nc(-c2ccccc2)no1)C1CCCCC1 |  | 10 µM [rising, partial curve, poor fit]
Cc1ccc(C)c(N2CCN(S(=O)(=O)c3ccc4c(c3)oc(=O)n4C)CC2)c1 | 1.78 µM [rising, full curve, poor fit] | 
COc1ccccc1NC(=O)N1CCC(c2nc3cc(C)c(C)cc3[nH]2)CC1 |  | 1.78 µM [rising, full curve]
O=S(=O)(NCc1ccncc1)c1ccccc1 | 7.94 µM [rising, partial curve, poor fit] | 8.91 µM [rising, partial curve]
COc1cc(S(=O)(=O)NCc2ccncc2)c(OC)cc1Cl |  | 11.2 µM [rising, partial curve, poor fit]
Cc1ccc(-c2csc(NC(=O)c3cnccn3)n2)cc1C | 5.62 µM [falling, single point] | 
O=C(O)c1cc(-c2ccc(C(F)(F)F)cc2)nc2n[nH]c(-c3ccccc3)c12 | 2 µM [rising, partial curve, poor fit] | 
CCN1C(=O)N[C@@H](c2ccccc2)C1=O |  | 0.178 µM [falling, partial curve, poor fit]
COc1ccc(C)cc1-n1c(SCC(=O)Nc2cc(C)on2)nc2sc(C)c(C)c2c1=O |  | 0.0631 µM [rising, full curve, poor fit]
COc1ccccc1C(=O)Nc1nnc(S(=O)(=O)N(C)c2ccc(Cl)cc2)s1 |  | 0.00891 µM [rising, full curve, poor fit]
O=c1cnc2cncnc2n1Cc1ccccc1Cl | 4.47 µM [falling, full curve] | 3.98 µM [falling, full curve]
CC(COc1ccc(/C=C/c2ccccc2)cc1)[N+](C)(C)C (stereo not drawn) | 0.000794 µM [falling, full curve, poor fit] | 31.6 µM [falling, single point]
CCN1C(=O)/C(=C/c2ccc(C)o2)N(C)C1=S |  | 14.1 µM [rising, single point]
NC(=O)CN(c1ccc(Cl)cc1)S(=O)(=O)c1ccccc1 |  | 1.26 µM [falling, full curve, poor fit]

SMILES | AC50 [1] | AC50 [2]
CCc1ccc(-c2csc(NC(=O)c3cccnc3)n2)cc1 | 5.62 µM [rising, single point] | 3.98 µM [rising, full curve]
Cc1ccc(C(=O)NCCn2ccc3ccccc32)cc1[N+](=O)[O-] |  | 0.00501 µM [falling, full curve, poor fit]
Cc1onc(-c2ccccc2Cl)c1C(=O)Nc1ccccc1 |  | 35.5 µM [rising, single point]
Cc1nn2c(=O)cc(COC(=O)CNC(=O)c3ccc(F)cc3)nc2s1 |  | 1.41 µM [falling, partial curve]
O=C(Nc1ccn(Cc2ccccc2)n1)c1cccc(Cn2cc([N+](=O)[O-])cn2)c1 |  | 31.6 µM [rising, single point]
CCOC(=O)N1CCC(NC(=O)C2CCCN(S(=O)(=O)c3cccc4nsnc34)C2)CC1 (stereo not drawn) | 0.112 µM [rising, partial curve, poor fit] | 
Cc1ccc(OCC(O)Cn2c(=N)n(CCN3CCCCC3)c3ccccc32)cc1 (stereo not drawn) |  | 31.6 µM [rising, single point]
CC1(C)CC(=O)C2=C(C1)Oc1ncn(Cc3ccco3)c(=N)c1C2c1ccccc1 (stereo not drawn) |  | 15.8 µM [rising, partial curve]
COc1ccccc1/C=C/C=N/NC(=O)CN1CCN(S(=O)(=O)c2ccc(C)cc2)CC1 |  | 12.6 µM [rising, single point]
N=c1n(CCN2CCCCC2)c2ccccc2n1CC(O)c1cccc(Br)c1 (stereo not drawn) |  | 31.6 µM [rising, single point]
CCOC(=O)c1cnc2ccc(OCC)cc2c1N1CCN(c2ccccc2OC)CC1 | 35.5 µM [falling, single point] | 31.6 µM [falling, single point]
COC(=O)c1ccc(COc2cc(O)c3c(c2)OC(C)(C)CC3=O)cc1 |  | 0.398 µM [falling, full curve, poor fit]
CN(C)CC/C=C1\c2ccccc2COc2ccc(CC(=O)O)cc21 | 0.00251 µM [falling, full curve, poor fit] | 
S=C(NCc1ccc(Cl)cc1)NN1CCOCC1 | 0.00501 µM [falling, full curve, poor fit] | 5.62 µM [falling, single point]
c1ccc(C2CN3CCSC3=N2)cc1 (stereo not drawn) | 35.5 µM [falling, single point] and 28.2 nM [falling, full curve, poor fit] | 2.51 µM [falling, full curve]
COc1ccc(/C=N/Nc2nnc(Cc3ccc(OC)c(OC)c3)c(=O)[nH]2)cc1 |  | 22.4 µM [rising, partial curve, poor fit]
Cc1c(Cl)cccc1NC(=S)N1CCc2ccccc2C1 | 0.00447 µM [falling, full curve, poor fit] | 0.00447 µM [falling, full curve, poor fit]
O=C(CCCCn1c(=O)[nH]c2ccsc2c1=O)NCCc1ccccc1 | 0.002 µM [rising, full curve, poor fit] | 
O=C(CSC1=Nc2ccccc2C2CC=NN12)Nc1ccc2c(c1)OCO2 (stereo not drawn) | 0.00891 µM [rising, full curve] | 0.0112 µM [rising, full curve]

SMILES | AC50 [1] | AC50 [2]
CN(C)S(=O)(=O)c1cccc(C(=O)Nc2cc(Cl)ccc2O)c1 | 12.6 µM [rising, partial curve] | 22.4 µM [rising, partial curve]
Cc1cccc(OCc2n[nH]c(=S)n2C2CCCCC2)c1 |  | 11.2 µM [rising, partial curve]
COC(=O)c1cc(O)c(O)c(O)c1 | 35.5 µM [falling, single point] | 25.1 µM [falling, single point]
COc1ccc(-c2nnn(Cc3nc(N)nc(N4CCCCC4)n3)n2)cc1 |  | 14.1 µM [rising, single point]
CC(C)(C)SCCNC(=O)Nc1ccccc1 | 10 µM [rising, partial curve, poor fit] | 
Cc1ccc(CNS(=O)(=O)c2cc3[nH]c(=O)c(=O)[nH]c3cc2C)cc1 |  | 4.47 µM [falling, single point]
Cc1nc(CNS(=O)(=O)c2ccc3c(c2)OCCO3)cs1 |  | 12.6 µM [rising, partial curve]
CC(C)CN1C(=O)/C(=C(/C#N)C(=O)NC2CCCCC2)c2ccccc21 |  | 0.891 µM [rising, partial curve]
O=C(NCc1ccco1)/C(=C/c1cccc(C(F)(F)F)c1)c1nc2ccccc2[nH]1 | 0.0112 µM [falling, full curve, poor fit] | 
O=C1C2CCCCC2C(=O)N1c1ccc(NC2CCCCC2)c([N+](=O)[O-])c1 (stereo not drawn) |  | 0.2 µM [rising, full curve]
N/C(=N\N=C\c1ccc2c(c1)OCO2)c1nonc1N | 7.08 µM [falling, full curve, poor fit] | 7.08 µM [falling, partial curve, poor fit]
CC(=O)NC(NC(=S)N1CCCCCC1)C(Cl)(Cl)Cl (stereo not drawn) | 8.91 µM [rising, partial curve, poor fit] | 
COc1cccc(CC2(CO)CCN(Cc3ccc(NC(C)=O)cc3)CC2)c1 | 0.00316 µM [rising, full curve] | 
Cn1c(=O)cc(OCCCC(=O)NCCCN2CCN(Cc3ccccc3)CC2)c2ccccc21 | 0.0112 µM [rising, full curve, poor fit] | 
Cc1ccc(C(=O)Nc2ccc3nc(SCC(=O)N4CCCc5ccccc54)sc3c2)cc1 | 0.447 µM [falling, full curve] | 0.158 µM [falling, full curve, poor fit]
O=C1N/C(=N\N=C\c2ccco2)SC1Cc1ccc(F)cc1 (stereo not drawn) |  | 3.98 µM [falling, single point]
COc1ccc(CCNC(=O)c2ccc(CN3CCC(Cc4ccccc4)CC3)cc2)cc1OC | 17.8 µM [rising, single point] | 35.5 µM [rising, single point]
COc1ccc(-c2noc(CCC(=O)N3CCN(c4cc(C)ccc4C)CC3)n2)cc1 |  | 35.5 µM [rising, single point]
COc1ccc(N2CCN(CCCNC(=O)CN3CCN(Cc4ccccc4C)C3=O)CC2)cc1 |  | 35.5 µM [rising, single point]

Entries of single compounds as entered above.
O=C1N/C(=N\N=C\c2ccco2)SC1Cc1ccc(F)cc1 (stereo not drawn) is entered as AC50 [2]: 3.98 µM [falling, single point]
Cc1onc(-c2ccccc2Cl)c1C(=O)N(Cc1nc(-c2ccccc2)no1)C1CCCCC1 is entered as AC50 [2]: 10 µM [rising, partial curve, poor fit]
